According to EP4603088A1, “N-PALMITOYLET[…] USE IN COMBINATION WITH MELOXICAM IN THE TREATMENT OF IN[…]” (priority 2024, dated 2025):
For at least one compound, name, drawing or mass did not settle the structure.

How the values were obtained:
[1] = system: CFA-induced inflammatory pain; assay: CFA-induced inflammatory pain model, paw pressure test; assay type: in vivo, male Sprague-Dawley rats; settings: meloxicam 30 mg/kg, single administration per os on day 7 after CFA; T0-T60; p = 0.0001
Text: In the in vivo experimentation, male Sprague-Dawley rats (200-250 g) (Envigo, Varese, Italy) fed "ad libitum" and housed in cages with a controlled sleep/wake cycle were used.
Before the start of the study, the animals were subjected to a 1-week acclimatization period at the Center for Laboratory Animal Sheltering (Ce.S.A.L.) of the University of Florence, following all experimental procedures and protocols compliant with the principles of care and welfare of laboratory animals approved by the Italian Ministry of Health (Italian Legislative Decree 2014/26), European directives (EU Directive 2010/63) and the ARRIVE guidelines. […]
All animals were subjected to the paw pressure test at the level of the ipsilateral paw, performed before (T0) or after 15, 30, 45 and 60 minutes after the single administration of the treatment (T15, T30, T45 and T60, respectively). In particular, the nociceptive threshold was calculated with an analgesiometer (Ugo Basile, Varese, Italy) by applying an increasing pressure at constant speed (32 g/s) by means of a non-pointed conical support on the dorsal surface of the ipsilateral paw with respect to the injection of CFA (or vehicle). […]
The AUC was analyzed by a two-way factor analysis of variance (2x2 ANOVA), after plotting the mean values, according to the procedure shown by Slinker BK. […] The values were expressed as mean ± standard error mean (SEM). […]

[2] = system: inflammatory pain induced by Carrageenan; assay: Carrageenan-induced inflammatory pain model, Von Frey test; assay type: in vivo, male Sprague-Dawley rats; settings: PEA 3 mg/kg and/or MLX 0.05 mg/kg orally 30 minutes before CAR; 3 and 5 hours after CAR injection; combination p=0.0084 and p=0.0004 vs vehicle
Description: All analyses were performed using SAS software, version 9.4 (SAS Institute, Cary, NC, USA). P value < 0.05 was considered significant.

[3] = system: LPS-induced inflammatory pain; assay: LPS-induced inflammatory pain model, paw pressure test; assay type: in vivo, Male Sprague-Dawley rats; settings: meloxicam at 3 mg/kg and 30 mg/kg; PEA at 5 mg/kg and 10 mg/kg, alone or associated with low-dose meloxicam; 60 min after LPS; p<0.0001 for all comparisons
Description: Male Sprague-Dawley rats were housed in groups of four, in 26x41 cm cages, at a temperature of 23±1°C, with a 12-hour circadian cycle, and water/food "ad libitum" (standard diet). LPS (10 µg in 50 µl of 0.9% NaCl, Sigma-Aldrich) was injected into the plantar surface of the hind paw of the rat following isoflurane anesthesia. Control animals were treated with vehicle alone (0.9% NaCl). […]
Inflammatory pain induced by LPS injection was measured by paw pressure test. […] The results were expressed in terms of analgesic potency, defined as percentage inhibition (mean ± SEM) of inflammatory pain induced by LPS and calculated according to the formula: 100*(treatm-VEIC)/(CTRL-VEIC).
The results were analyzed via Generalized Linear Model (GLM) followed by post-hoc analysis based on Tukey-Kramer correction for multiple comparisons. […] In order to verify whether the effect of PEA and meloxicam was synergistic, it was analyzed whether the extent of the inhibition of inflammatory pain by LPS was greater for the association of the two substances compared to the substances used individually. […]

Cc1cnc(NC(=O)C2=C(O)c3ccccc3S(=O)(=O)N2C)s1 [meloxicam]
inflammatory pain tolerance threshold (paw pressure test), effect with respect to CFA [1]: significantly counteracts the threshold lowering caused by CFA
analgesic effect vs vehicle (Von Frey test, paw retraction) [2]: no analgesic effect significantly different from the vehicle
effect on the LPS-induced drop of the nociceptive threshold vs LPS vehicle [3]: significantly counteracted the pro-algic effect of LPS
